Measured values published in PubChem BioAssay AID1487 (National Center for Advancing Translational Sciences (NCATS), 2009).
The list shows a part of the results. Shown are side measurements of this screen, not its main read-out; they come without a call. Most of these compounds were active or inconclusive in the main read-out, so they are no random draw. Words in brackets tell the shape of the fitted curve; partial curves, single points and poor fits give uncertain potencies.

Experiment: qHTS Assay for Modulators of Lamin A Splicing
Settings: HeLa LMNA splicing GFP/RFP minigene ratio, 48 h
Method in brief: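 S3 HeLa cells stably expressing lamin A-EGFP splicing minigene plus DsRed2, 600 cells/well, 48 h compound exposure at 37C. Laser-scanning cytometry; analysed as GFP (500-530 nm)/RFP (575-640 nm) total intensity ratio; 0.5% DMSO vehicle.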

[1] = measured here: RFP viability control channel
[2] = measured here: GFP splicing reporter channel

| Structure (SMILES) | AC50 [1] | AC50 [2] |
| --- | --- | --- |
| Cc1cc(C)cc(NC(=O)CN2C(=O)c3ccccc3Sc3ccc(C(=O)N4CCCC4)cc32)c1 | 0.178 µM [falling, full curve, poor fit] |  |
| COc1ccc(CCn2c(-c3ccco3)nc3ccccc3c2=O)cc1OC | 8.91 µM [rising, partial curve] | 4.47 µM [rising, full curve, poor fit] |
| CC(=O)OCC(=O)[C@@]1(O)CCC2C3C[C@H](C)C4=CC(=O)C=CC4(C)C3C(O)CC21C (some centres not stated) | 0.891 µM [falling, full curve, poor fit] | 17.8 µM [rising, partial curve, poor fit] |
| CCOC(=O)c1c(NC(=O)COC(=O)C2CC2C)sc(C)c1C (configuration not stated) |  | 0.891 µM [rising, full curve, poor fit] |
| O=C(CN1C(=O)CCc2cc(Br)ccc21)Nc1ccc(OC(F)(F)F)cc1 |  | 0.0708 µM [falling, full curve, poor fit] |
| Cc1ccc(-n2nnnc2SCn2nnc3ccccc3c2=O)c(C)c1 | 2.82 µM [rising, full curve] |  |
| O=C(NC(=S)N1CCN(c2ccc(Cl)cc2[N+](=O)[O-])CC1)c1ccco1 | 14.1 µM [rising, single point] |  |
| CNc1ccc(Br)cc(C(=O)/C=C/c2cccc(Cl)c2Cl)c1=O | 15.8 µM [falling, single point] |  |
| COC(=O)[C@@H](NC(=O)c1ccc(OC2CCN(Cc3ccccn3)CC2)cc1)C(C)C | 3.98 µM [falling, full curve, poor fit] |  |
| COc1ccccc1N1CCN(S(=O)(=O)c2cc(C(=O)Nc3ccc(Oc4ccccc4)cc3)ccc2F)CC1 | 0.355 µM [falling, full curve, poor fit] | 0.562 µM [falling, full curve] |
| Cn1cc(/C=N\NC(=O)C2COc3ccccc3O2)c2ccccc21 (configuration not stated) | 2 µM [rising, full curve] |  |
| COc1ccc(N2CCN(C(=O)CSc3ccccc3N)CC2)cc1 | 35.5 µM [rising, single point] |  |
| Cc1ccc(S(=O)(=O)N(CC(=O)N2CCc3ccccc3C2)c2ccc(Cl)c(Cl)c2)cc1 | 8.91 µM [rising, partial curve] |  |
| Clc1ccc2[nH]c3c(N4CCC5(CC4)OCCO5)ncnc3c2c1 | 8.91 µM [rising, single point] |  |
| COc1ccc(Cc2nc(-c3ccc(Br)cc3)no2)cc1 | 11.2 µM [rising, partial curve] | 12.6 µM [falling, partial curve, poor fit] |
| CSc1c2c(nc3ncnn13)CCC2 | 25.1 µM [rising, single point] |  |
| CCCNC(=O)Cn1c(=O)oc2ccccc21 | 2.24 µM [falling, full curve, poor fit] |  |

Sorted by molar mass (rising): 3 of the compounds above

| Structure (SMILES) | AC50 [1] | AC50 [2] |
| --- | --- | --- |
| Cc1ccc(-n2nnnc2SCn2nnc3ccccc3c2=O)c(C)c1 | 2.82 µM [rising, full curve] |  |
| COc1ccc(CCn2c(-c3ccco3)nc3ccccc3c2=O)cc1OC | 8.91 µM [rising, partial curve] | 4.47 µM [rising, full curve, poor fit] |
| CNc1ccc(Br)cc(C(=O)/C=C/c2cccc(Cl)c2Cl)c1=O | 15.8 µM [falling, single point] |  |

(continued)

| Structure (SMILES) | AC50 [1] | AC50 [2] |
| --- | --- | --- |
| O=C(CSC1=Nc2ccccc2C2=NC(Cc3ccccc3)C(=O)N12)Nc1cccc(Cl)c1 (configuration not stated) | 12.6 µM [rising, partial curve, poor fit] |  |
| O=C(N/N=C/c1ccccn1)c1cc(-c2cccc3ccccc23)n[nH]1 | 8.91 µM [rising, partial curve, poor fit] |  |
| CC(C)(C)c1ccc(NC(=S)NCc2cccs2)cc1 | 28.2 µM [rising, single point] | 35.5 µM [rising, single point] |
| COc1ccc(-c2cnc(SCC(=O)Nc3nc(C(C)(C)C)cs3)n2Cc2ccco2)cc1 | 35.5 µM [rising, single point] |  |
| O=C1Nc2ccccc2N=C(c2ccccc2)C1Br (configuration not stated) | 1.26 µM [falling, partial curve, poor fit] | 35.5 µM [falling, partial curve, poor fit] |
| CC(O)C(=O)N/N=C/c1cccc2ccccc12 (configuration not stated) | 1.12 µM [falling, partial curve] |  |
| CC(C)n1c(-c2ccccc2)nc(=S)c2c1CCCC2 | 8.91 µM [rising, partial curve] | 11.2 µM [rising, partial curve] |
| Cc1c(-n2c(-c3ccccc3Cl)n[nH]c2=S)c(=O)n(-c2ccccc2)n1C | 0.0112 µM [falling, full curve, poor fit] | 0.01 µM [falling, full curve, poor fit] |
| CSc1ccc(C2C(C#N)=C(N)Oc3cc4c(cc32)OCO4)cc1 (configuration not stated) | 6.31 µM [rising, partial curve, poor fit] |  |
| CC(=O)N1CCC2(CC1)C/C(=N\NC(=S)Nc1ccccc1C)c1cc(O)ccc1O2 | 0.0158 µM [falling, full curve, poor fit] |  |
| CCOc1ccccc1CNS(=O)(=O)c1ccc(-c2cnc(C3CC3)o2)cc1 | 0.224 µM [rising, partial curve] | 0.0891 µM [rising, full curve, poor fit] |
| CC(=O)Nc1ccc(NC(=O)c2ccc(C3SCC(=O)N3CCc3ccccc3)cc2)cc1 (configuration not stated) | 28.2 µM [rising, single point] | 11.2 µM [rising, partial curve] |
| COc1cc([N+](=O)[O-])ccc1NC(=O)CSc1nnc(C)c(C)n1 | 1.26 µM [falling, partial curve, poor fit] |  |
| CCOC(=O)C1=C(c2ccccc2)NC(=S)NC1c1ccc(Cl)c([N+](=O)[O-])c1 (configuration not stated) | 20 µM [rising, partial curve, poor fit] | 8.91 µM [rising, partial curve] |
| O=c1c2ccccc2nc(-c2ccccc2)n1Cc1ccccc1 | 11.2 µM [rising, partial curve] | 7.08 µM [rising, partial curve, poor fit] |
| O=C(NC1CC(=O)N(c2ccc(F)cc2)C1)c1ccc(S(=O)(=O)N2CCOCC2)cc1 (configuration not stated) | 3.98 µM [falling, full curve, poor fit] |  |
| Cc1cc(C)n(-c2nc(NC(C)C)nc(NC(C)C)n2)n1 | 25.1 µM [falling, single point] | 35.5 µM [falling, single point] |
